Experimental data reported in the supplement of paper PMC7646827.
Where a name gives a salt, the structure may show the parent alone. Single values are uncertain, as repeats are few or missing.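 All cells are established human bladder cancer lines, one derived from a patient-derived xenograft. A luminescent ATP assay measured viability as percent inhibition relative to vehicle across seven dilutions. The paper rates scores above 59 very active, 30–59 active, 21–29 semi-active, 9–20 low active, below 9 inactive.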

Columns and labels:
Assay in all cases: drug sensitivity score DSS3 (score 0-100); higher = more sensitive; extreme values may be limits of the assay
Conditions in all cases: culture: 3D, ultra-low attachment; treatment time: 5 days
[1] = system: UM-UC-1
[2] = system: UM-UC-14
[3] = system: 5637
[4] = system: UM-UC-6
[5] = system: J82
[6] = system: UM-UC-12
[7] = system: SW780
[8] = system: UM-UC-9
[9] = system: T-24
[10] = system: UM-UC-3
[11] = system: BC8149
[12] = system: SCaBER
[13] = system: UM-UC-5
[14] = system: UM-UC-17
[15] = system: UM-UC-18
[16] = system: TCCSUP

Row | Structure (SMILES) | drug sensitivity score DSS3 [1] | drug sensitivity score DSS3 [2] | drug sensitivity score DSS3 [3] | drug sensitivity score DSS3 [4] | drug sensitivity score DSS3 [5] | drug sensitivity score DSS3 [6] | drug sensitivity score DSS3 [7] | drug sensitivity score DSS3 [8] | drug sensitivity score DSS3 [9] | drug sensitivity score DSS3 [10] | drug sensitivity score DSS3 [11] | drug sensitivity score DSS3 [12] | drug sensitivity score DSS3 [13] | drug sensitivity score DSS3 [14] | drug sensitivity score DSS3 [15] | drug sensitivity score DSS3 [16]
1 | CN(c1ncccc1CNc1nc(Nc2ccc3c(c2)CC(=O)N3)ncc1C(F)(F)F)S(C)(=O)=O (max dose 10000 nM) | 1.73 | 1.26 | 2.09 | 1.46 | 0.627 | 0.989 | 0 | 0 | 1.5 | 0 | 1.25 | 0.803 | 0.0891 | 0 | 1.04 | 2.07
2 | Cc1cnc(-c2cnc(NCCNc3ccc(C#N)cn3)nc2-c2ccc(Cl)cc2Cl)[nH]1 (max dose 10000 nM) | 0 | 0 | 0 | 0 | 0 | 0 | 0 | 0 | 0.0229 | 0 | 0 | 0 | 0 | 0 | 0 | 0
3 | Cn1cc(/C=C2\C(=O)Nc3cccnc32)c2ccccc21 (max dose 10000 nM) | 0 | 0 | 0.979 | 0 | 0 | 0 | 0 | 0 | 0 | 0 | 0 | 3.78e-05 | 0 | 0 | 1.28 | 0
4 | N#Cc1cnc(Nc2cc(NC[C@H]3CNCCO3)c(C(F)(F)F)cn2)cn1 (max dose 10000 nM) | 0 | 0 | 2.9 | 8.28 | 0 | 0 | 0 | 0 | 0.469 | 0 | 1.38 | 0 | 0 | 0 | 1.77 | 8.41
5 | Nc1ncnc2n[nH]c(Nc3ccc(F)cc3)c12 (max dose 10000 nM) | 0 | 0 | 0 | 0 | 0 | 0 | 0 | 0 | 0 | 0 | 0 | 0 | 0 | 0 | 0 | 0.029
6 | Cc1c(NC(=O)c2cc(C(N)=O)nc3cc(F)ccc23)c(C(F)(F)F)nn1Cc1ccc(C#N)cc1 [BAY-876] (max dose 10000 nM) | 2.67 | 5.12 | 0.217 | 0.214 | 0 | 3.42e-05 | 0.0125 | 9.02 | 0 | 0.414 | 0 | 0 | 0.885 | 0 | 0 | 0
7 | NC(=O)c1ccc2nc(-c3ccc(Oc4ccc(Cl)cc4)cc3)[nH]c2c1 [Chk2 Inhibitor II (BML-277)] (max dose 10000 nM) | 0 | 0 | 0 | 0 | 0 | 0 | 0 | 0 | 0.000374 | 0 | 0 | 0 | 0 | 0.0128 | 0 | 9.47
8 | C[C@H]1COC2=C1C(=O)C(=O)c1c2ccc2c1CCCC2(C)C [Cryptotanshinone] (max dose 10000 nM) | 0 | 0 | 0 | 0 | 0 | 0 | 0 | 0.0277 | 0 | 0.516 | 0 | 0 | 0.57 | 0 | 0 | 0
9 | CCOc1ccc(Cc2cc([C@@H]3O[C@H](CO)[C@@H](O)[C@H](O)[C@H]3O)ccc2Cl)cc1 [Dapagliflozin propanediol monohydrate] (max dose 10000 nM) | 0.00352 | 0 | 0 | 0.708 | 0 | 0.00799 | 0 | 0 | 0 | 0.0113 | 0 | 0 | 0 | 0 | 0.135 | 0
10 | COCCNc1cc(NC(=O)N2CCCc3cc(CN4CCN(C)CC4=O)c(C=O)nc32)ncc1C#N [FGF401] (max dose 10000 nM) | 0 | 0 | 0.144 | 1.76 | 0 | 0 | 0.337 | 0 | 0 | 0.343 | 0 | 0 | 0 | 0.649 | 0 | 0.194
11 | NS(=O)(=O)NCCNc1nonc1C(=Nc1ccc(F)c(Br)c1)NO [IDO inhibitor 1] (max dose 10000 nM) | 0 | 0 | 0 | 0 | 0 | 0 | 0 | 0 | 0 | 0 | 0 | 0 | 0 | 0 | 0 | 0
12 | OC[C@H]1O[C@@H](c2ccc(F)c(Cc3cc4ccccc4s3)c2)[C@H](O)[C@@H](O)[C@@H]1O [Ipragliflozin (ASP1941)] (max dose 10000 nM) | 0 | 0 | 0 | 0 | 0 | 0 | 0 | 0 | 0 | 0 | 0 | 0 | 0 | 0 | 0 | 0
13 | CCn1c(=O)c2c(nc(/C=C/c3ccc(OC)c(OC)c3)n2C)n(CC)c1=O [Istradefylline] (max dose 10000 nM) | 0 | 0 | 0 | 0 | 0 | 0 | 0 | 0 | 0 | 0 | 0 | 0 | 0 | 0 | 0 | 0
14 | COc1cc(-c2cc(-c3ccc(Cl)cc3)[nH]c(=O)n2)ccc1O [LIT-927] (max dose 10000 nM) | 0 | 0 | 0 | 0.00837 | 0 | 0 | 0 | 0 | 0.63 | 0 | 0 | 0 | 0 | 0 | 0 | 0
15 | NC(=O)c1cc(F)cc2c1C(=O)N(C1CCN(C3CCC(F)(F)CC3)CC1)C2 [NMS-P118] (max dose 10000 nM) | 0 | 0 | 0 | 13 | 1.52 | 0 | 0 | 0 | 9.08 | 0 | 0 | 0.69 | 0 | 0 | 0 | 0
16 | CCCOc1ccc(CCc2nc3cc(-c4c(C)noc4C)ccc3n2CCN2CCOCC2)cc1 [PF-CBP1 HCl] (max dose 10000 nM) | 0 | 0 | 0 | 0 | 0 | 0 | 0 | 0 | 0 | 0 | 0 | 0 | 0 | 0 | 0 | 0
17 | Cc1cc(F)c(C(=O)Nc2cccc(-c3nncn3C(C)C)n2)cc1-n1cnc(C2CC2)c1 [Selonsertib (GS-4997)] (max dose 10000 nM) | 0 | 0 | 0.0683 | 0 | 0 | 0 | 0 | 0 | 0 | 0 | 0 | 0 | 0 | 0 | 0 | 0
18 | Cn1cnc2c(F)c(Nc3ccc(Br)cc3Cl)c(C(=O)NOCCO)cc21 [Selumetinib, Selumetinib (AZD6244)] (max dose 10000 nM) | 2 | 1.6 | 4.32 | 2.12 | 0.0675 | 1.39 | 0.77 | 0.373 | 8.77 | 21.4 | 6.05 | 12.1 | 8.92 | 1.35 | 1.91 | 3.26
19 | CC(C)(O)CNc1ncc(-c2ccnc(Nc3ccnc(Cl)c3)n2)c(CC2CC2)n1 [VPS34-IN1] (max dose 10000 nM) | 8.05 | 1.19 | 14 | 8.65 | 0 | 0 | 0 | 3.68 | 0 | 2.02 | 9.89 | 0 | 0 | 2.35 | 0.173 | 11.9
20 | CC1(C)CCC(CN2CCN(c3ccc(C(=O)NS(=O)(=O)c4ccc(NCC5CCOCC5)c([N+](=O)[O-])c4)c(Oc4cnc5[nH]ccc5c4)c3)CC2)=C(c2ccc(Cl)cc2)C1 [Venetoclax (ABT-199, GDC-0199)] (max dose 10000 nM) | 48.3 | 0 | 0 | 0 | 0 | 0 | 0 | 0 | 0 | 0 | 0 | 0 | 0.958 | 0 | 0 | 0
21 | CCOc1cc(N2CCC(O)CC2)ccc1Nc1ncc2c(n1)N(C)c1ccccc1C(=O)N2C [XMD8-92] (max dose 10000 nM) | 0 | 2.1 | 0 | 0.181 | 0 | 0 | 0 | 0 | 0 | 1.09 | 0 | 0 | 0 | 0 | 0 | 3.93

Whole records, quoted from the list. Values in the order: drug sensitivity score DSS3 [1] | drug sensitivity score DSS3 [2] | drug sensitivity score DSS3 [3] | drug sensitivity score DSS3 [4] | drug sensitivity score DSS3 [5] | drug sensitivity score DSS3 [6] | drug sensitivity score DSS3 [7] | drug sensitivity score DSS3 [8] | drug sensitivity score DSS3 [9] | drug sensitivity score DSS3 [10] | drug sensitivity score DSS3 [11] | drug sensitivity score DSS3 [12] | drug sensitivity score DSS3 [13] | drug sensitivity score DSS3 [14] | drug sensitivity score DSS3 [15] | drug sensitivity score DSS3 [16]
`Cc1c(NC(=O)c2cc(C(N)=O)nc3cc(F)ccc23)c(C(F)(F)F)nn1Cc1ccc(C#N)cc1` [BAY-876] (max dose 10000 nM) is listed as 2.67 | 5.12 | 0.217 | 0.214 | 0 | 3.42e-05 | 0.0125 | 9.02 | 0 | 0.414 | 0 | 0 | 0.885 | 0 | 0 | 0
`COc1cc(-c2cc(-c3ccc(Cl)cc3)[nH]c(=O)n2)ccc1O` [LIT-927] (max dose 10000 nM) is listed as 0 | 0 | 0 | 0.00837 | 0 | 0 | 0 | 0 | 0.63 | 0 | 0 | 0 | 0 | 0 | 0 | 0
